Assay results: patent publication US20140087945A1, “SUBSTITUTED 4-CYAN-3-(2,6-DIFLUOROPHENYL)-4-PHENYLBUTANOATES, METHOD FOR THE PRODUCTION THEREOF AND USE THEREOF AS HERBICIDES AND PLANT GROWTH REGULATORS” (Bayer Intellectual Property GmbH, priority 2011, published 2014)
Some of these results come from one statement about several compounds together. Some ranges recur; such a range may be that of the whole group of compounds.

Experiments:
Format in all cases: in vivo
[1] = tested on: Avena fatua; assay: Herbicidal post-emergence action
[2] = tested on: Echinochloa crus-galli; assay: Herbicidal post-emergence action; conditions: 0.32 kg of active substance per hectare, rated visually after about 3 weeks
[3] = tested on: Amaranthus retroflexus; assay: Herbicidal pre-emergence action; conditions: 0.32 kg of active substance per hectare, scored visually after about 3 weeks
[4] = tested on: Veronica persica; assay: Herbicidal pre-emergence action
[5] = tested on: Viola tricolor; assay: Herbicidal pre-emergence action
[6] = tested on: Stellaria media; assay: Herbicidal pre-emergence action; conditions: 0.32 kg of active substance per hectare, scored visually after about 3 weeks
[7] = tested on: Viola tricolor; assay: Herbicidal post-emergence action
[8] = tested on: Amaranthus retroflexus; assay: Herbicidal post-emergence action; conditions: 0.32 kg of active substance per hectare, rated visually after about 3 weeks
[9] = tested on: Setaria viridis; assay: Herbicidal post-emergence action; conditions: 0.32 kg of active substance per hectare, rated visually after about 3 weeks
[10] = tested on: Stellaria media; assay: Herbicidal post-emergence action; conditions: 0.32 kg of active substance per hectare, rated visually after about 3 weeks
[11] = tested on: Lolium multiflorum; assay: Herbicidal post-emergence action; conditions: 0.32 kg of active substance per hectare, rated visually after about 3 weeks
[12] = tested on: Polygonum convolvulus; assay: Herbicidal post-emergence action; conditions: 0.32 kg of active substance per hectare, rated visually after about 3 weeks
[13] = tested on: Setaria viridis; assay: Herbicidal pre-emergence action
[14] = tested on: oilseed rape; assay: Crop plant compatibility, pre-emergence; conditions: 80 g/ha
[15] = tested on: Alopecurus myosuroides; assay: Herbicidal post-emergence action; conditions: 0.32 kg of active substance per hectare, rated visually after about 3 weeks
[16] = tested on: Lolium multiflorum; assay: Herbicidal pre-emergence action; conditions: 0.32 kg of active substance per hectare, scored visually after about 3 weeks
[17] = tested on: Polygonum convolvulus; assay: Herbicidal pre-emergence action
[18] = tested on: Echinochloa crus galli; assay: Herbicidal pre-emergence action
[19] = tested on: corn; assay: Crop plant compatibility, pre-emergence; conditions: 80 g/ha
[20] = tested on: Alopecurus myosuroides; assay: Herbicidal pre-emergence action; conditions: 0.32 kg of active substance per hectare, scored visually after about 3 weeks
[21] = tested on: oilseed rape; assay: Crop plant compatibility, post-emergence; conditions: 80 g/ha
[22] = tested on: Pharbitis purpureum; assay: Herbicidal post-emergence action; conditions: 0.32 kg of active substance per hectare, rated visually after about 3 weeks
[23] = 0.32 kg of active substance per hectare, rated visually after about 3 weeks
[24] = 0.32 kg of active substance per hectare, scored visually after about 3 weeks

SMILES | herbicidal activity [1, 23] | herbicidal activity [2] | herbicidal activity [3] | herbicidal activity [4, 24] | herbicidal activity [5, 24] | herbicidal activity [6] | herbicidal activity [7, 23] | herbicidal activity [8] | herbicidal activity [9] | herbicidal activity [10] | herbicidal activity [11] | herbicidal activity [12] | herbicidal activity [13, 24] | herbicidal activity [15] | herbicidal activity [16] | herbicidal activity [17, 24] | herbicidal activity [18, 24] | herbicidal activity ([1]; 80 g/ha) | herbicidal activity [20] | damage (selectivity in oilseed rape: no damage or up to 20% damage) [21] | other results
COC(=O)CC(c1c(F)cccc1F)C(C#N)c1ccc(Cl)c(Cl)c1 (mixture of isomers) [Example 1-16] | 80-100% | 80-100% | 90-100% | 90-100% | 90-100% | – | – | – | – | – | – | – | – | – | – | – | – | – | – | – | –
COC(=O)C[C@@H](c1c(F)cccc1F)[C@@H](C#N)c1ccc(F)c(C#N)c1 [Example 2-230] | 80-100% | 80-100% | 90-100% | 90-100% | 90-100% | 90-100% | 80-100% | 80-100% | 80-100% | 80-100% | 80-100% | 80-100% | 90-100% | 80-100% | 90-100% | 90-100% | 90-100% | – | – | – | damage (selectivity in oilseed rape: no damage or up to 20% damage) [14]: up to 20%; herbicidal activity ([4]; 80 g/ha): 80 to 100%; herbicidal activity ([5]; 80 g/ha): 80 to 100%
COC(=O)CC(c1c(F)cccc1F)C(C#N)c1ccc(F)c(Br)c1 (mixture of isomers) [Example 1-232] | 80-100% | 80-100% | 90-100% | – | – | 90-100% | 80-100% | 80-100% | 80-100% | 80-100% | 80-100% | 80-100% | 90-100% | 80-100% | 90-100% | 90-100% | 90-100% | 80 to 100% | 90-100% | up to 20% | damage (selectivity in corn: no damage or up to 20% damage) [19]: up to 20%; herbicidal activity ([13]; 80 g/ha): 80 to 100%; herbicidal activity ([17]; 80 g/ha): 80 to 100%; herbicidal activity ([18]; 80 g/ha): 80 to 100%
COC(=O)C[C@@H](c1c(F)cccc1F)[C@@H](C#N)c1ccc(F)c(Br)c1 [Example 2-229] | 80-100% | 80-100% | 90-100% | 90-100% | 90-100% | 90-100% | 80-100% | 80-100% | 80-100% | 80-100% | 80-100% | 80-100% | 90-100% | 80-100% | 90-100% | 90-100% | 90-100% | – | 90-100% | – | herbicidal activity [22]: 80-100%; damage (selectivity in corn: no damage or up to 20% damage) [19]: up to 20%; herbicidal activity ([13]; 80 g/ha): 80 to 100%; herbicidal activity ([17]; 80 g/ha): 80 to 100%; herbicidal activity ([18]; 80 g/ha): 80 to 100%
COC(=O)CC(c1c(F)cccc1F)C(C#N)c1ccc(F)c(F)c1 (centres unmarked) [Example 1-11, methyl 4-cyano-3-(2,6-difluorophenyl)-4-(3,4-difluorophenyl)butanoate] | 80-100% | 80-100% | 90-100% | 90-100% | 90-100% | – | 80-100% | 80-100% | 80-100% | 80-100% | 80-100% | 80-100% | – | 80-100% | – | – | – | 80 to 100% | – | up to 20% | herbicidal activity [22]: 80-100%; herbicidal activity ([7]; 80 g/ha): 80 to 100%
COC(=O)CC(c1c(F)cccc1F)C(C#N)c1ccc(Cl)cc1 (mixture of isomers) [Example 1-6] | – | – | – | – | – | – | – | – | – | – | – | – | – | – | – | – | – | 80 to 100% | – | up to 20% | herbicidal activity ([7]; 80 g/ha): 80 to 100%
COC(=O)CC(c1c(F)cccc1F)C(C#N)c1ccc(OC)c(F)c1 (mixture of isomers) [Example 1-28] | – | – | – | – | – | – | – | – | – | – | – | – | – | – | – | 90-100% | – | – | – | – | –
COC(=O)CC(c1c(F)cccc1F)C(C#N)c1cccc(I)c1 (mixture of isomers) [Example 1-19] | 80-100% | 80-100% | – | – | – | – | – | – | – | – | – | – | – | – | – | – | – | 80 to 100% | – | up to 20% | –
COC(=O)C[C@@H](c1c(F)cccc1F)[C@@H](C#N)c1ccc(F)c(Cl)c1 [Example 2-15] | 80-100% | 80-100% | 90-100% | – | – | 90-100% | 80-100% | 80-100% | 80-100% | 80-100% | 80-100% | 80-100% | 90-100% | 80-100% | 90-100% | 90-100% | 90-100% | 80 to 100% | 90-100% | up to 20% | herbicidal activity ([7]; 80 g/ha): 80 to 100%; damage (selectivity in corn: no damage or up to 20% damage) [19]: up to 20%; herbicidal activity ([13]; 80 g/ha): 80 to 100%; herbicidal activity ([18]; 80 g/ha): 80 to 100%
CCOC(=O)C[C@@H](c1c(F)cccc1F)[C@@H](C#N)c1ccc(F)c(F)c1 [Example 2-107, Ethyl (3R,4R)-4-cyano-3-(2,6-difluorophenyl)-4-(3,4-difluorophenyl)-butanoate] | 80-100% | 80-100% | 90-100% | 90-100% | 90-100% | 90-100% | 80-100% | 80-100% | 80-100% | 80-100% | 80-100% | 80-100% | 90-100% | 80-100% | 90-100% | 90-100% | 90-100% | – | 90-100% | – | herbicidal activity [22]: 80-100%
N#CC(c1ccc(F)c(F)c1)C(CC(=O)O)c1c(F)cccc1F (centres unmarked) [Example 1-106, 4-Cyano-3-(2,6-difluorophenyl)-4-(3,4-difluorophenyl)butanoic acid] | 80-100% | 80-100% | 90-100% | 90-100% | 90-100% | 90-100% | – | – | – | – | – | – | – | – | – | 90-100% | – | – | – | – | herbicidal activity [22]: 80-100%
